{"source": "PubChem BioAssay AID1259275 | Sanger Institute, 2017", "purpose": "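Kinome and custom colorectal gene library screened for lethal knock-downs and drug partners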 (primary screen)", "cell system": "COLO320HSR human colorectal cancer cells", "reagents": "siRNA pool against human genes", "treatment": "anchor drug added one day after transfection: BYL719 at 1 µM, cetuximab at 5 µg/ml or trametinib at 10 nM; DMSO as vehicle arm", "detection": "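Replicate-mean viability versus non-targeting pool control, robust z-score without drug, and per-drug synergy scores for BYL719 at 1 µM, cetuximab at 5 µg/ml and trametinib at 10 nM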", "reading the numbers": "robust z-score, siRNA alone: higher = more viable cells; strongly negative means essential", "call rule": "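Essential means the knock-down by itself gives a robust z-score lower than -3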", "meaning of the calls": "active = essential (siRNA alone); inactive = no change (siRNA alone)", "note": "The deposit covers 794 reagents; shown is a part drawn at random. 13 of them (1.6%) count as active. 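Calls mark knock-downs lethal by themselves, not drug synergy; drugs went in a day after transfection, with DMSO as vehicle.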 Not all columns of the deposit are shown. Not stated in the record: the amount of reagent, the time to read-out."}
{"gene symbol":"PLK2 (polo like kinase 2)","robust z-score, siRNA alone":0.334,"call":"inactive"}
{"gene symbol":"MAP3K1 (mitogen-activated protein kinase kinase kinase 1)","robust z-score, siRNA alone":0.45,"call":"inactive"}
{"gene symbol":"PIK3C3 (phosphatidylinositol 3-kinase catalytic subunit type 3)","robust z-score, siRNA alone":0.726,"call":"inactive"}
{"gene symbol":"KCNH2 (potassium voltage-gated channel subfamily H member 2)","robust z-score, siRNA alone":-0.0323,"call":"inactive"}
{"gene symbol":"TTK (TTK protein kinase)","robust z-score, siRNA alone":-1.03,"call":"inactive"}
{"gene symbol":"PDGFRA (platelet derived growth factor receptor alpha)","robust z-score, siRNA alone":-1.47,"call":"inactive"}
{"gene symbol":"BRD3 (bromodomain containing 3)","robust z-score, siRNA alone":-1.17,"call":"inactive"}
{"gene symbol":"CDKL5 (cyclin dependent kinase like 5)","robust z-score, siRNA alone":0.726,"call":"inactive"}
{"gene symbol":"ACVRL1 (activin A receptor like type 1)","robust z-score, siRNA alone":-0.781,"call":"inactive"}
{"gene symbol":"PRKAA1 (protein kinase AMP-activated catalytic subunit alpha 1)","robust z-score, siRNA alone":-0.356,"call":"inactive"}
{"gene symbol":"RET (ret proto-oncogene)","robust z-score, siRNA alone":0.0169,"call":"inactive"}
{"gene symbol":"MELK (maternal embryonic leucine zipper kinase)","robust z-score, siRNA alone":0.115,"call":"inactive"}

2 entries from above, reformatted:
| gene symbol | robust z-score, siRNA alone | call |
| --- | --- | --- |
| CDKL5 (cyclin dependent kinase like 5) | 0.726 | inactive |
| ACVRL1 (activin A receptor like type 1) | -0.781 | inactive |
